The values that follow come from PMC12668046, “Single cis‐elements in brassinosteroid‐induced upregulated genes are insufficient to recruit both redox states of the BIL1/BZR1 DNA‐binding domain” (Febs Letters, 2025).

These are yes or no findings as the source states them, for the method shown. Tags and fused reporters may be left off the sequences shown.

This assay deals with T1, MBP-fused PIF4 DBD (253–319) connected via a flexible linker (A. thaliana) (UniProt Q8W2F3).
T1 sequence: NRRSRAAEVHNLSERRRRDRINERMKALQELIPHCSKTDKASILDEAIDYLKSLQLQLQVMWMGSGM
The experiment in a line: native gel or EMSA; gel shift of unfused BIL1/BZR1 DBD fractions mixed with MBP-fused PIF4 DBD and 0.25 μM FAM-labeled DNA fragments from the IAA19 and SAUR-AC1 promoters; 10 mM Tris/HCl pH 7.5, 50 mM KCl, 50 mM NaCl, 0 or 5 mM DTT, 2.5% glycerol; heterodimers looked for on DNA; both purified. (In general: In EMSA bound probe runs differently from free probe, usually more slowly.)

B1: unfused BIL1/BZR1 DBD (21–104), pretreated with the reductant DTT (domain or fragment, A. thaliana, UniProt Q8S307 21-104, looked up)
chain: ARRKPSWRERENNRRRERRRRAVAAKIYTGLRAQGDYNLPKHCDNNEVLKALCVEAGWVVEEDGTTYRKGCKPLPGEIAGTSSR
notes: also called reduced BIL1/BZR1 DBD; source: expressed and purified as described previously [9, 14, 21]; SEC into reductant-free buffer
On to B1, for which the binding result is “no binding (tested: 4 μM of each protein)”.
